# According to PubChem BioAssay AID1918942 (Molecular Pharmacology Branch, DTP, NCI, 2023):
# The source gives many values for each of these; only a part stands here.
# Tested on: 743489-274-T-PDC complex spheroid viability
# Assay: Anticancer human tumor 743489-274-T-PDC patient-derived renal cell carcinoma cell line growth inhibition
# Details: compound 10 µM; stronger effect = lower value
# Excerpt: Multicellular complex tumor spheroid response to LSD1 Inhibitor Iadademstat in combination with a variety of drugs and investigational agents in selected tumor cell lines
# The current study was undertaken to assess response to LSD1 inhibitors in combination with standard-of-care drugs and investigational agents in solid tumor complex spheroid models as well as in the K-562 leukemia. Complex spheroids include a stromal component modeled by human endothelial cells (HUVEC) and fibroblasts modeled by human mesenchymal stem cells (MSCs). The concentration ranges selected for each drug and investigational agent were based upon clinically achievable concentrations if the clinical Cmax of the agent was known.
# Compounds. The drugs and investigational agents used in this study are listed on Table 1. All of the agents used, including staurosporine (NSC755774) and gemcitabine (NSC613327), were obtained from the Developmental Therapeutics Program, NCI. FDA-approved anticancer drugs are available from the NCI at http://dtp.nci.nih.gov/branches/dscb/oncology_drugset_explanation.html. Drugs and investigational agents were >95% pure by proton nuclear magnetic resonance (NMR) and liquid chromatography/mass spectrometry (LC/MS). […] If the clinical Cmax for an agent had not been determined, the highest concentration tested was 10 microM. […]
# 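Note: spheroids exposed to compounds for 7 days before readout; 100% = DMSO vehicle control wells.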
smiles,measurement,value
NC1CCC(NC2CC2c2ccccc2)CC1 (stereo unspecified),"viability, T/C",105%
